These are yes or no findings as the source states them, for the method shown. Binding seen in cells or lysates may run through a third protein. Here binding means that the protein was enriched with, or labelled near, the bait; the list need not be complete. For some assays here: Sequences can lack the tags named with a protein.
T1: FLAG-p115 (human) (UniProt O60763)
T1 sequence: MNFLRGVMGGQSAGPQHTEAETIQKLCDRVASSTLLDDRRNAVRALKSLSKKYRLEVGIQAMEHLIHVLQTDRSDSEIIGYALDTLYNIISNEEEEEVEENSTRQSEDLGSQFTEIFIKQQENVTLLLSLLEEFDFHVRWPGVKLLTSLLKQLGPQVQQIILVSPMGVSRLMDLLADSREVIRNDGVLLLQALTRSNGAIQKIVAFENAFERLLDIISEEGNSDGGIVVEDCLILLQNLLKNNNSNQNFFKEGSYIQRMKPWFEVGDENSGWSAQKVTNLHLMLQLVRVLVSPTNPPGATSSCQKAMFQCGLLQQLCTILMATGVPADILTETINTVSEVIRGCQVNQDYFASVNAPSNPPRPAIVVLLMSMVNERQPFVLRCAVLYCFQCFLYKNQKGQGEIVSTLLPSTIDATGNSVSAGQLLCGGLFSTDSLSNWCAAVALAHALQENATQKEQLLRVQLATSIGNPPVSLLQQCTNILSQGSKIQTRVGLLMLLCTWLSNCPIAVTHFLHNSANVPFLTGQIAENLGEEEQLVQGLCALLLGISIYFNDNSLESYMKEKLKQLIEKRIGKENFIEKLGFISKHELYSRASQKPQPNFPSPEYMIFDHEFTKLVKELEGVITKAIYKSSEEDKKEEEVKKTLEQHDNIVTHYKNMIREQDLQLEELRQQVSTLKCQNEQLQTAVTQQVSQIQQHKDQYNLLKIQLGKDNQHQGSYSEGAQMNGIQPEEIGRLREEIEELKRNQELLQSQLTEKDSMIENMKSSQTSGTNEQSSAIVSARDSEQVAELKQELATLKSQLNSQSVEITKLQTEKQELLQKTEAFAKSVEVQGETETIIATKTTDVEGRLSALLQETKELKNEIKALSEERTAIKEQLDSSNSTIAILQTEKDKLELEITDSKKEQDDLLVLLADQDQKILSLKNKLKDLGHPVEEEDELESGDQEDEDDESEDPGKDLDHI


Key:
FLAG-TRAF3 (human) = assay: affinity purification with mass spectrometry; HEK293 cells stably expressing the FLAG-tagged bait; lysis in 0.5% NP-40; FLAG M2 beads, 2 h; LC-MS/MS; SAINT scoring against cells expressing FLAG alone; two biological replicates
FLAG-p115 (human) = target: T1, FLAG-p115 (human); assay: as above

binding (FLAG-TRAF3 (human))	binding (FLAG-p115 (human))	Binder
binds		endogenous p115 (protein, UniProt O60763 1-962) MNFLRGVMGGQSAGPQHTEAETIQKLCDRVASSTLLDDRRNAVRALKSLSKKYRLEVGIQAMEHLIHVLQTDRSDSEIIGYALDTLYNIISNEEEEEVEENSTRQSEDLGSQFTEIFIKQQENVTLLLSLLEEFDFHVRWPGVKLLTSLLKQLGPQVQQIILVSPMGVSRLMDLLADSREVIRNDGVLLLQALTRSNGAIQKIVAFENAFERLLDIISEEGNSDGGIVVEDCLILLQNLLKNNNSNQNFFKEGSYIQRMKPWFEVGDENSGWSAQKVTNLHLMLQLVRVLVSPTNPPGATSSCQKAMFQCGLLQQLCTILMATGVPADILTETINTVSEVIRGCQVNQDYFASVNAPSNPPRPAIVVLLMSMVNERQPFVLRCAVLYCFQCFLYKNQKGQGEIVSTLLPSTIDATGNSVSAGQLLCGGLFSTDSLSNWCAAVALAHALQENATQKEQLLRVQLATSIGNPPVSLLQQCTNILSQGSKIQTRVGLLMLLCTWLSNCPIAVTHFLHNSANVPFLTGQIAENLGEEEQLVQGLCALLLGISIYFNDNSLESYMKEKLKQLIEKRIGKENFIEKLGFISKHELYSRASQKPQPNFPSPEYMIFDHEFTKLVKELEGVITKAIYKSSEEDKKEEEVKKTLEQHDNIVTHYKNMIREQDLQLEELRQQVSTLKCQNEQLQTAVTQQVSQIQQHKDQYNLLKIQLGKDNQHQGSYSEGAQMNGIQPEEIGRLREEIEELKRNQELLQSQLTEKDSMIENMKSSQTSGTNEQSSAIVSARDSEQVAELKQELATLKSQLNSQSVEITKLQTEKQELLQKTEAFAKSVEVQGETETIIATKTTDVEGRLSALLQETKELKNEIKALSEERTAIKEQLDSSNSTIAILQTEKDKLELEITDSKKEQDDLLVLLADQDQKILSLKNKLKDLGHPVEEEDELESGDQEDEDDESEDPGKDLDHI
	binds	GM130 (protein, UniProt Q08379 1-1002) MWPQPRLPPRPAMSEETRQSKLAAAKKKLREYQQRNSPGVPTGAKKKKKIKNGSNPETTTSGGCHSPEDTPKDNAATLQPSDDTVLPGGVPSPGASLTSMAASQNHDADNVPNLMDETKTFSSTESLRQLSQQLNGLVCESATCVNGEGPASSANLKDLESRYQQLAVALDSSYVTNKQLNITIEKLKQQNQEITDQLEEEKKECHQKQGALREQLQVHIQTIGILVSEKAELQTALAHTQHAARQKEGESEDLASRLQYSRRRVGELERALSAVSTQQKKADRYNKELTKERDALRLELYKNTQSNEDLKQEKSELEEKLRVLVTEKAGMQLNLEELQKKLEMTELLLQQFSSRCEAPDANQQLQQAMEERAQLEAHLGQVMESVRQLQMERDKYAENLKGESAMWRQRMQQMSEQVHTLREEKECSMSRVQELETSLAELRNQMAEPPPPEPPAGPSEVEQQLQAEAEHLRKELEGLAGQLQAQVQDNEGLSRLNREQEERLLELERAAELWGEQAEARRQILETMQNDRTTISRALSQNRELKEQLAELQSGFVKLTNENMEITSALQSEQHVKRELGKKLGELQEKLSELKETVELKSQEAQSLQQQRDQYLGHLQQYVAAYQQLTSEKEVLHNQLLLQTQLVDQLQQQEAQGKAVAEMARQELQETQERLEAATQQNQQLRAQLSLMAHPGEGDGLDREEEEDEEEEEEEAVAVPQPMPSIPEDLESREAMVAFFNSAVASAEEEQARLRGQLKEQRVRCRRLAHLLASAQKEPEAAAPAPGTGGDSVCGETHRALQGAMEKLQSRFMELMQEKADLKERVEELEHRCIQLSGETDTIGEYIALYQSQRAVLKERHREKEEYISRLAQDKEEMKVKLLELQELVLRLVGDRNEWHGRFLAAAQNPADEPTSGAPAPQELGAANQQGDLCEVSLAGSVEPAQGEAREGSPRDNPTAQQIMQLLREMQNPRERPGLGSNPCIPFFYRADENDEVKITVI

Source: article PMC3390413
